Data reported in publication PMC8546600, “Chaperone Spy Protects Outer Membrane Proteins from Folding Stress via Dynamic Complex Formation” (mBio, 2021).
Results are given in words; binding and its absence hold for the method and conditions named.

Sequences of proteins named here, by UniProt entry; tags and fusion partners are left off. Residues count along the entry.
UniProt P09169, residues 21-317: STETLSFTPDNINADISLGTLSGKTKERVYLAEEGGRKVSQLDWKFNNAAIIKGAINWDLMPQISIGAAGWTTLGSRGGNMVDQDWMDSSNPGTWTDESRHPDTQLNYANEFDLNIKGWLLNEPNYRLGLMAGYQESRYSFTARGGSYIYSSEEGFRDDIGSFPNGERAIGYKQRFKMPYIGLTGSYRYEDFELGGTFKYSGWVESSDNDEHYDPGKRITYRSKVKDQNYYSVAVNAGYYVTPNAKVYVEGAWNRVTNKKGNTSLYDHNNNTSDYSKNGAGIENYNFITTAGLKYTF

Biological target: His-OmpT (Escherichia coli) (UniProt P09169)
Experiment: other fluorescence titration; intrinsic tryptophan fluorescence of the OMP (0.4 uM) titrated with increasing Spy or Skp; 40 mM HEPES, 150 mM NaCl, 0.24 M urea, pH 7.5; 25 C; excitation 295 nm, emission 305-400 nm; both purified

B1: periplasmic chaperone Spy (natural protein, Escherichia coli, UniProt P77754 24-161, looked up)
chain: ADTTTAAPADAKPMMHHKGKFGPHQDMMFKDLNLTDAQKQQIREIMKGQRDQMKRPPLEERRAMHDIIASDTFDKVKAEAQIAKMEEQRKANMLAHMETQNKIYNILTPEQKKQFNANFEKRLTERPAAKGKMPATAE
notes: Spy, periplasmic chaperone of Escherichia coli; [U-2H,15N]-labelled in the HSQC experiment with unlabelled OmpX, unlabelled elsewhere; also called wild-type Spy; WT Spy; source: E. coli, from pET28b(+)-HisSUMO-spy, purified (6xHis-SUMO tag removed, cation exchange)
- binding: no binding
